# According to patent US20030073656A1:
# By UniProt entry, the sequences of proteins in these tests, tags left out. Where a name states a change or a piece, a line headed by the entry shows the natural chain unless it says otherwise.
# UniProt Q04912: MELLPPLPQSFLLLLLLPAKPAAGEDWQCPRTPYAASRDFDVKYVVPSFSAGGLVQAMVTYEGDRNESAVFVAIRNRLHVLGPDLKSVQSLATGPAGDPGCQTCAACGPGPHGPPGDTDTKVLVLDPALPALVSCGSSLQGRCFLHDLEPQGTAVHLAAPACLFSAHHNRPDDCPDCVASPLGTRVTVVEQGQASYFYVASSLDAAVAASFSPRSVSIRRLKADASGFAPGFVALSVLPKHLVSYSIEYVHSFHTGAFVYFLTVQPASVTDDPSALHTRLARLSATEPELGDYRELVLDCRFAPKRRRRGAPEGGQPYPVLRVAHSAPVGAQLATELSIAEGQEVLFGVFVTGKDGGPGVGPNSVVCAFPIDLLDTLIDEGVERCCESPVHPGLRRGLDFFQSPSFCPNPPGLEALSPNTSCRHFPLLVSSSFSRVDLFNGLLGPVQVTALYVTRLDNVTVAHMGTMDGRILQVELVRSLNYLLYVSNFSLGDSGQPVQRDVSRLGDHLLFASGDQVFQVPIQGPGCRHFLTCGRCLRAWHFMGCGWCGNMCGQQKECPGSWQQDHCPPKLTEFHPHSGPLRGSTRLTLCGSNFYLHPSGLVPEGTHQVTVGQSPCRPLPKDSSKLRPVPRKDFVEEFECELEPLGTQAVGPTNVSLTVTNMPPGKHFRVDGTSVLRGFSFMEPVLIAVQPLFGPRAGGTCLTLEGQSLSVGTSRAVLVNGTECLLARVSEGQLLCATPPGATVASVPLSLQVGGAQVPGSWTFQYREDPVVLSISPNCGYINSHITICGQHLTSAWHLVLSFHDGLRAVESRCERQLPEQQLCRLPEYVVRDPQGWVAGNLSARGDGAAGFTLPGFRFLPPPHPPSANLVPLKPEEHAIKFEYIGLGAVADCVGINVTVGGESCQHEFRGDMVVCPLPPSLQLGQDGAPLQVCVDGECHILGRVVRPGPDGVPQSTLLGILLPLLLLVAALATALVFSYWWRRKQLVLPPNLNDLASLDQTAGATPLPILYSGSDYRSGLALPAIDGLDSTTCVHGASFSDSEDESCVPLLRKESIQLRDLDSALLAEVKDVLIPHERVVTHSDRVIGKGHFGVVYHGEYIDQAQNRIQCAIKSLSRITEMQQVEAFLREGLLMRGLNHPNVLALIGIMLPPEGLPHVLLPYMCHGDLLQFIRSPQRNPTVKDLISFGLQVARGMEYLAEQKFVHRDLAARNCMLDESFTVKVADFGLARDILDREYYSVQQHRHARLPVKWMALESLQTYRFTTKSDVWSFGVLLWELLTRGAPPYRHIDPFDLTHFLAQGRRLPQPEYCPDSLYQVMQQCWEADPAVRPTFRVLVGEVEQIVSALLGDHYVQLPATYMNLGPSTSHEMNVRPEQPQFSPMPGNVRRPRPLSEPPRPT
# UniProt P26927: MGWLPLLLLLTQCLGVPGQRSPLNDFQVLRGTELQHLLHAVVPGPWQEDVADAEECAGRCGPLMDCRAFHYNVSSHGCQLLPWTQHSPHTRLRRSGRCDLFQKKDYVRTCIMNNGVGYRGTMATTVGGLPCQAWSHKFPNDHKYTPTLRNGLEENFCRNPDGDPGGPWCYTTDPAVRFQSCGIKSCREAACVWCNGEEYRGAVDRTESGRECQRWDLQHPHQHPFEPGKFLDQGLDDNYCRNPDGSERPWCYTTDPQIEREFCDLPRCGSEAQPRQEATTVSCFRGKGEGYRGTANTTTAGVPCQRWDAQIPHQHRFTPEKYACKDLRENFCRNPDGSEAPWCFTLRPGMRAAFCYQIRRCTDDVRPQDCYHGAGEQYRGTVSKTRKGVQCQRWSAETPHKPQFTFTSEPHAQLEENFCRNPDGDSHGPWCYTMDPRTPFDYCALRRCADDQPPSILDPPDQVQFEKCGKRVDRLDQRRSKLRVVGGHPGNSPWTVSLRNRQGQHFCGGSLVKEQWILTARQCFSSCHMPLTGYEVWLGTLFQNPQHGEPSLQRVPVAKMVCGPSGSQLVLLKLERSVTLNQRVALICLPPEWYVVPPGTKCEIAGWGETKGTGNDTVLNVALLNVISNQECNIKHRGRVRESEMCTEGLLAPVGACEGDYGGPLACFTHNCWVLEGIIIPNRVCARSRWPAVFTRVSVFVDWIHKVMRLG
# These are yes or no findings as the source states them, for the method shown. Some entries that bind do so weakly or less than the wild type.
# Tests used:
# [1] = target: RON receptor tyrosine kinase (Homo sapiens (Human)) (UniProt Q04912); assay: RON receptor binding; assay not given
# [2] = target: RON receptor tyrosine kinase (Homo sapiens (Human)) (UniProt Q04912); assay: direct ELISA, affinity-purified Ron coated on the plate, bound HGFL detected with anti-HGFL antibody
Substance,binding [1],binding [2]
isolated HGFL β chain (from UniProt P26927 484-711) (ligand),binds,–
processed wild-type human hepatocyte growth factor-like protein (HGFL) (from UniProt P26927 19-483; P26927 484-711) (ligand),–,binds
